From patent EP3875590A1, “METHOD FOR PRODUCING ORGANIC COMPOUND AND CORYNEFORM BACTERIUM” (Green Earth Institute Co., Ltd., priority 2018, dated 2020)
At least one read-out could not be matched to a standard name with certainty.

System: leucine dehydrogenase
Experiment: enzyme kinetics (Michaelis-Menten) of the reductive amination reaction of HOB with purified leucine dehydrogenase
Assay type: biochemical, Lysinibacillus sphaericus
Conditions: HOB as a substrate; 100 mM HEPES/KOH (pH 7.5), 200 mM ammonium chloride, 0.2 mM NADH
Method: The solution in which the bacterial cells were crushed and which was obtained in 4-6-(1) was subjected to a filtration treatment using a syringe filter with a pore size of 0.2 µm (manufactured by Sartorius AG). Fractionation was performed using an AKTA purifier system (manufactured by GE Healthcare) to which a HisTrap™ FF 1 mL column was connected, and using 50 mM sodium phosphate buffer (pH 8.0), 500 mM sodium chloride, and 10% glycerol as adsorption buffers, and 50 mM sodium phosphate buffer (pH 8.0), 500 mM sodium chloride, 10% glycerol, and 500 mM imidazole as elution buffers. Fractions containing leucine dehydrogenase identified by SDS-PAGE were recovered and concentrated using ultrafiltration. […]
Using the purified leucine dehydrogenase thus obtained, analysis of enzyme kinetics based on the Michaelis-Menten formula using HOB as a substrate was performed. As reaction conditions, 100 mM HEPES/KOH (pH 7.5), 200 mM ammonium chloride, 0.2 mM NADH, and 3.7 µg/mL leucine dehydrogenase were used, and a reaction rate at which a concentration of HOB was 3.13, 6.25, 12.5, 25.0, 50.0, and 100 mM was measured. A reaction rate was calculated by measuring a continuous decrease in absorption by NADH at 340 nm using a Varioskan LUX (manufactured by Thermo Fisher Scientific Inc.). […]

O=C(O)C(=O)CCO [HOB, 4-hydroxy-2-oxobutyric acid]
specificity constant kcat/KM: 350 M⁻¹ s⁻¹
